Reference: patent publication US20250127702A1, “SUNSCREEN COMPOSITION WITH CRYSTALLINE ORGANIC SUNSCREEN FILTERS” (Edgewell Personal Care Brands, LLC, priority 2021, published 2025)
At least one read-out could not be matched to a standard name with certainty.

Test: Amount of solvent needed to solubilize crystalline sunscreen filters
Type: physicochemical
Settings: octocrylene, homosalate, octisalate, octinoxate, ethylhexyl benzoate and C12-C15 alkyl benzoate
Excerpt: This is unexpected since it theoretically takes at least 37 g of the solvent combination to solvate 3 g of bis-ethylhexyloxyphenol methoxyphenyl triazine (a filter that is harder to solubilize than even avobenzone). Similarly, the theoretical amount of octocrylene, homosalate, octisalate, octinoxate, ethylhexyl benzoate and C12-C15 alkyl benzoate to solvate 3 g of bis-ethylhexyloxyphenol methoxyphenyl triazine is 21 g. […] Additional benefits from relatively less solvent content, such as migration benefits, are discussed below.
This is unexpected since it theoretically takes at least 37 g of the solvent combination to solvate 3 g of bis-ethylhexyloxyphenol methoxyphenyl triazine (a filter that is harder to solubilize than even avobenzone) and 42.8 g of the solvent combination to solvate 15.5 g of the crystalline filter combination.

With `CCCCC(CC)COc1ccc(-c2nc(-c3ccc(OC)cc3)nc(-c3ccc(OCC(CC)CCCC)cc3O)n2)c(O)c1` (stereo not shown) [bis-ethylhexyloxyphenol methoxyphenyl triazine] the “theoretical amount of solubilizers to solvate 3 g” value was 21 g.
